In PubChem BioAssay AID504648 (National Center for Advancing Translational Sciences (NCATS), 2011):
Among all 390,000 compounds or so, about 610 (0.16%) were called active. Inconclusive means that the source gave no clear call. Such entries were picked first, then a sample of the others. Calls follow the shape of the dose curve; as a rule, active = well fitted inhibition curve with a large enough effect; inconclusive = small, poorly fitted or top-dose-only effect, or effect the other way, or another doubt; inactive = no such curve, though single readings can be large or run the other way. Where the call is inconclusive, the potency comes from a doubtful curve fit.

Assay: Nrf2 qHTS screen for inhibitors: counterscreen for cytotoxicity
Details: A549 ARE-Fluc cells, CellTiter-Fluor viability, 18-24 h; series mostly up to 46 µM
Outline: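 Cytotoxicity counterscreen: CellTiter-Fluor fluorescence was measured in A549 ARE_Fluc cells after 18-24 h of compound exposure in a concentration series. The subsequent BugLite luminescent read reports ARE-luciferase activity.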
Potency is read from the fitted curve at half-maximal effect.

Compound | Potency
COc1ccc(C(=O)NC(C(=O)NCc2ccccn2)C(C)C)cc1 (configuration not stated) | inconclusive: 4.61 µM [falling, partial curve, poor fit]
CCOC(=O)c1cnc(-n2cc(C)cn2)nc1Nc1ccccc1OC | inactive
N#Cc1c(N)nc2c(c1N)CC(CO)O2 (configuration not stated) | inactive
Cc1cccn2c(=O)c3cc(C(=O)NCC4CCCO4)c(=N)n(CCN4CCOCC4)c3nc12 (configuration not stated) | inconclusive: 16.4 µM [falling, partial curve, poor fit]
Cc1cc(NC(=O)c2ccc(F)cc2F)n(-c2nc3ccccc3[nH]2)n1 | inactive
Clc1ccccc1OCCCCN1CCCC1 | inactive
Cc1ccc2nc(/C(C#N)=C\c3ccc(OC(=O)c4cccs4)cc3)[nH]c2c1 | inconclusive: 2.06 µM [falling, partial curve, poor fit]
COc1ccc(NC(=O)c2c(NCc3cccs3)sc3c2CCC(C)C3)c(OC)c1 (configuration not stated) | inconclusive: 23.1 µM [falling, single point]
CC(=O)/C(=N\Nc1ccccc1)Oc1ccc(Br)cc1 | inactive
Cc1ccc(C2CC(c3ccco3)n3ncnc3N2)cc1 (configuration not stated) | inactive
CCOc1cc(/C=N/NC(=O)c2ccccc2OCc2ccc(F)cc2)ccc1O | inactive
C#CCOCCOCCOCCNc1nc(N2CCN(C(=O)CCCCCCCCCCNC(=O)[C@@H](CCSC)n3cc(CCO)nn3)CC2)nc(N2CCN(C(=O)CCCCCCCCCCNC(=O)[C@H]([C@@H](C)CC)n3cc(CCCCN=C(N)N)nn3)CC2)n1 | inconclusive: 23.1 µM [falling, single point]
CC(=O)c1cccc(NC(=O)c2cccc(N3C(=O)c4ccccc4C3=O)c2)c1 | inactive
Cc1ccc(CN2CCC(CNC(=O)c3cnn(-c4ccccc4Cl)c3C3CCN(C(=O)OC(C)(C)C)CC3)CC2)cc1 | inconclusive: 32.6 µM [falling, partial curve, poor fit]
Cc1ccc(NS(=O)(=O)c2cc([N+](=O)[O-])ccc2NNC(=S)Nc2cc(C)ccc2C)c(C)c1 | inconclusive: 11.6 µM [falling, partial curve]
COc1ccccc1NC1=Nc2cccc3cccc1c23 | active: 25.9 µM
O=C(COC(=O)c1ccccc1NCCO)Nc1ccc(S(=O)(=O)NC2=NCCCCC2)cc1 | inactive
CCC(C)Nc1nc(N)c([N+](=O)[O-])c(Nc2cc(OC)ccc2OC)n1 (configuration not stated) | inconclusive: 32.6 µM [falling, single point]
C[C@@H]1CC=C[C@H]2[C@H]1C(=O)N(Cc1ccccc1)[C@H]2c1ccc2ccccc2c1Br | inconclusive: 29.1 µM [falling, single point]
O=C(CSc1nc2ccccc2nc1Cc1ccc(Cl)cc1)Nc1ccc2c(c1)OCO2 | inactive
CCOC(=O)c1c(C)[nH]c(C=C2C(=O)CCCC2=O)c1O | inconclusive: 18.4 µM [falling, partial curve, poor fit]

Some of the entries so far, as comma-separated lines:
Compound,Potency
Cc1ccc(C2CC(c3ccco3)n3ncnc3N2)cc1 (configuration not stated),inactive
CCOc1cc(/C=N/NC(=O)c2ccccc2OCc2ccc(F)cc2)ccc1O,inactive
C#CCOCCOCCOCCNc1nc(N2CCN(C(=O)CCCCCCCCCCNC(=O)[C@@H](CCSC)n3cc(CCO)nn3)CC2)nc(N2CCN(C(=O)CCCCCCCCCCNC(=O)[C@H]([C@@H](C)CC)n3cc(CCCCN=C(N)N)nn3)CC2)n1,"inconclusive: 23.1 µM [falling, single point]"
CC(=O)c1cccc(NC(=O)c2cccc(N3C(=O)c4ccccc4C3=O)c2)c1,inactive
Cc1ccc(CN2CCC(CNC(=O)c3cnn(-c4ccccc4Cl)c3C3CCN(C(=O)OC(C)(C)C)CC3)CC2)cc1,"inconclusive: 32.6 µM [falling, partial curve, poor fit]"
Cc1ccc(NS(=O)(=O)c2cc([N+](=O)[O-])ccc2NNC(=S)Nc2cc(C)ccc2C)c(C)c1,"inconclusive: 11.6 µM [falling, partial curve]"
COc1ccccc1NC1=Nc2cccc3cccc1c23,active: 25.9 µM
O=C(COC(=O)c1ccccc1NCCO)Nc1ccc(S(=O)(=O)NC2=NCCCCC2)cc1,inactive

Remaining list, next part:

Compound | Potency
CCCCCC(=O)NNC(=S)NC(=O)c1ccccc1[N+](=O)[O-] | inconclusive: 23.1 µM [falling, partial curve, poor fit]
CC(=O)N1c2ccccc2C(=O)C1N1CCN(c2ccccc2F)CC1 (configuration not stated) | inconclusive: 29.1 µM [activator, partial curve, poor fit]
N=c1c2c(n(Cc3ccccc3)c3c1CCC3)CCC2 | inconclusive: 3.66 µM [falling, partial curve, poor fit]
c1ccc(-c2nccc3ccccc23)cc1 | inconclusive: 29.1 µM [activator, partial curve, poor fit]
COc1ccc(NC(=O)c2cc(-c3ccncc3)nc3ccc(Br)cc23)cc1OC | inconclusive: 29.1 µM [falling, partial curve, poor fit]
CCN1C(=NCCCOC(C)C)N[C@@H](CCc2ccccc2)[C@H](C(=O)NCCCOC(C)C)[C@H]1C | inactive
O=C(/C=C/c1ccc2c(c1)OCO2)c1ccc(O)cc1O | inconclusive: 23.1 µM [falling, single point]
CCCCc1cc2c(s1)CCCC/C2=N/O | inconclusive: 23.1 µM [activator, partial curve, poor fit]
COc1ccc(NC(=O)c2c(C)oc3ccc(O)c(CN4CCC(C)CC4)c23)cc1Cl | inactive
Cc1ccc(C)c(NC(=S)NNC(=O)c2csc3c2CCC(C)C3)c1 (configuration not stated) | inconclusive: 29.1 µM [falling, single point]
COc1cccc(C2=CC(c3cc(OC)ccc3OC)n3nnnc3N2)c1 (configuration not stated) | inconclusive: 8.2 µM [falling, partial curve, poor fit]
COC(=O)CSc1ncc2c(n1)-c1ccccc1N(Cc1ccc(Cl)cc1)S2(=O)=O | inconclusive: 20.6 µM [activator, partial curve, poor fit]
CCCN(c1c(C)n(C)n(-c2ccccc2)c1=O)S(=O)(=O)c1ccc(C)cc1 | inactive
CC(=O)OCCCNc1cc(Sc2ccc(C)cc2)c2nonc2c1[N+](=O)[O-] | inconclusive: 18.4 µM [falling, partial curve, poor fit]
COc1ccccc1NC(=O)CN1C(=O)COc2ccc(S(=O)(=O)N3CCCCCC3)cc21 | inconclusive: 2.59 µM [falling, partial curve, poor fit]
Cc1ccc(/C=N/NC(=O)CSc2nc3ccccc3n2C)s1 | inconclusive: 23.1 µM [activator, partial curve, poor fit]
CCN(CC)CCN1C(=O)c2cccc3cc(N)cc(c23)C1=O | inconclusive: 18.4 µM [falling, single point]
CCOc1ccc(-c2c[n+]3c(n2-c2ccccc2)CCCCC3)cc1 | inconclusive: 11.6 µM [falling, partial curve, poor fit]
Cc1ccc(CSc2nc3cccnc3n2Cc2ccc(C(=O)NCc3ccco3)cc2)cc1 | inactive
Cc1n[nH]c(C)c1S(=O)(=O)N1CCN(C(=O)c2ccco2)CC1 | inconclusive: 32.6 µM [falling, partial curve, poor fit]
O=C(Cn1cnc2c(nnn2Cc2ccc(F)cc2)c1=O)Nc1ccc2c(c1)OCCO2 | inconclusive: 16.4 µM [falling, single point]
